## Primary screen of a compound library

By UniProt entry, the sequences of proteins in these tests, tags left out. Residues count along the entry.
UniProt A4I591, 1-473: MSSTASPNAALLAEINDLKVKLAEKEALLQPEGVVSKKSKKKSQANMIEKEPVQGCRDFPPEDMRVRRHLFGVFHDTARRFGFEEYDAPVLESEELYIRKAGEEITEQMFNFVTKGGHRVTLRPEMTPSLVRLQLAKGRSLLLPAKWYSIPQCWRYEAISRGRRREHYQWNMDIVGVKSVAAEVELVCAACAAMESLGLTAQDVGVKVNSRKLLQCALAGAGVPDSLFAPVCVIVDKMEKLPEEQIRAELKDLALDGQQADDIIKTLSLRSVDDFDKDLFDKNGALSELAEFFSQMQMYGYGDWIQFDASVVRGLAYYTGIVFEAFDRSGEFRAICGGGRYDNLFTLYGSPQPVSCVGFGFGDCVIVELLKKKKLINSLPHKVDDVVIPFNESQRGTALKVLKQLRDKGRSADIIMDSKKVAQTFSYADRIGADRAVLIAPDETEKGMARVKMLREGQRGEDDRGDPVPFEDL

Results are given as percent effect. The controls that fix the scale are not given in the record; negative values are as filed. Compounds were drawn at random from those tested, without regard to their results.

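Histidine-tRNA ligase, Leishmania infantum (UniProt A4I591). Enzyme assay of histidyl-tRNA synthetase; the read-out is not stated. Concentration: 30 µM. Higher reads as stronger inhibition (inferred: compounds with an IC50 in retests scored well above the rest). The assay is labelled LdHisRS but filed under L. infantum. About 69,000 compounds were tested under these conditions; 0.6% (about 410) showed 50% or more at least once.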

compound	percent effect
CSCCC(Nc1nc(C)cc(C)n1)C(=O)NC1CCCC1 (stereo not shown)	26.09
CC(=O)N1CCC(c2n[nH]cc2-c2ccnc(N)c2)C1 (stereo not shown)	14.49
c1ccc(Oc2ccc(CNCC3CNc4ccnn4C3)cn2)cc1 (stereo not shown)	41.74
CC(C)c1nnc2n1CCN(C(=O)c1cc3cc(F)ccc3[nH]1)C2	19.13
NC(=O)C1CCN(c2nc3nccc(-c4ccccc4)c3c(=O)[nH]2)CC1	9.524
Cn1ccc(C(=O)N2CCC(Cc3cccc4cccnc34)C2)n1 (stereo not shown)	13.89
CN1CCCN(C[C@@H]2CN(C(=O)N3CCOCC3)C[C@@H]2CO)CC1	24.71
COCC(=O)N(Cc1ccc2[nH]ccc2c1)C1CC1	15
CN(C)Cc1ccnc(C2CN(Cc3nccs3)CCO2)n1 (stereo not shown)	18.56
OC(CNCCn1cccn1)c1cccc(Br)c1 (stereo not shown)	8.621
O=C(NCC1CC1)C1=NOC2(CCN(Cc3ccsc3)C2)C1 (stereo not shown)	8.108
CC(C)N1CC(NC(=O)c2ccc(Cl)s2)CC1=O (stereo not shown)	10.96
CC(C)C(C)N(Cc1ccccn1)Cc1ccco1 (stereo not shown)	12.2
CC(C)c1ncc(CN2CCC(CO)C2)cn1 (stereo not shown)	10
CN(Cc1cccc2cccnc12)C1CCS(=O)(=O)C1 (stereo not shown)	4.255
Cc1noc(C)c1CN1C[C@H](OCC(=O)N(C)C)[C@H]2OCCC[C@H]21	0
CC1CCCN(Cc2c(C3CCOCC3)[nH]c3ncccc23)C1 (stereo not shown)	11.11
OCc1cc2ccccc2nc1NC1CC=CC1	19.15
Cc1nn(C)c(C)c1CN1CCCC(c2ccc(C(=O)O)cc2)C1 (stereo not shown)	19.35
CN(Cc1nc2ccccc2n1C)CC1CCCN1c1cccnn1 (stereo not shown)	44.63
CCc1nc(CCNS(=O)(=O)c2cccc(C(=O)N(C)CC)c2)cs1	17.78
N#Cc1ccc(CN2CCNC(=O)C2c2cccs2)cc1 (stereo not shown)	19.35
CCN(CC)C(=O)CNS(=O)(=O)c1cc(Br)ccc1F	17.95
Cc1cc(C)n(CC2CCCN2C(=O)Cc2cn3ccsc3n2)n1 (stereo not shown)	7.692
N#Cc1cccc(CN2Cc3nccn3CC(CN3CCCC3)C2)c1 (stereo not shown)	22.34
CS(=O)(=O)NC[C@]12COC[C@H]1CN(C(=O)c1ccncn1)C2	-4.425
CCOc1ccc2cc(C(=O)NCCC(=O)N(C)C)[nH]c2c1	8.333
CCN1CC(C(=O)N2CCN(CCn3cccc3)CC2)CC1=O (stereo not shown)	30.3
CC(C#N)CSc1ccccc1NCC(=O)NC(C1CC1)C1CC1 (stereo not shown)	26.03
Cc1cc(C)n(CC2CCCN2CC(=O)NC2CCOCC2)n1 (stereo not shown)	0
CC(=O)N1CC2(CCN(c3nccc4ccccc34)CC2)CC1C(=O)O (stereo not shown)	24.59
Cc1c(NCc2ccc(C#N)cc2)cccc1S(=O)(=O)NC1CC1	9.677
CC(O)CN1CCN(C(=O)c2ccc(N3CCCC3)nn2)CC1 (stereo not shown)	8.929
CN(C)S(=O)(=O)N1CC[C@]2(O)CCN(Cc3cc(F)cc(F)c3)C[C@@H]2C1	24.1
COCCN(C)C(=O)Nc1ccc2c(ccn2CCOC)c1	31.43
Cc1cccc(CN2C[C@H]3OC(=O)N(CCCN4CCOCC4)[C@H]3C2)n1	22.33
CCc1ccccc1C(=O)N1C[C@@H](CN2CCOCC2)[C@@H](CO)C1	8.8
Cc1cccc(CN2CCN(C(=O)c3cc(Cl)c[nH]c3=O)CC2)c1	3.226
CCn1nc(C)cc1C(=O)NCc1nc(C)cc(C)n1	4.301
O=C(O)c1ccc2c(c1)C1(CCCCC1)CN2C(=O)c1cccs1	-2.857
CCCN(Cc1nc(-c2ccoc2)oc1C)CC1CCCO1 (stereo not shown)	11.48
Cc1nccn1CCC1CCN(c2ncccn2)CC1	10.83
CNC(=O)c1cc2c(nc1NC(C)C)CCN(C(=O)NC(C)C)CC2	5.66
O=C(c1nc(COc2ccc3c(c2)OCO3)no1)N1CCCC1	7.767
CC1=Nc2c(c(=O)[nH]n2C(C)C)C(c2ccc(F)c(F)c2)S1 (stereo not shown)	31.07
CC(C)N(C)C(=O)C1=NOC2(CCN(C(=O)c3ccccn3)C2)C1 (stereo not shown)	5.714
OC(COCc1ccccc1F)CN1CCC(Cn2cccn2)CC1 (stereo not shown)	4.878
CCCN1CCN(C(=O)c2cnn(-c3ccccc3F)c2)CC1	22.32
c1ccc(OCc2nc(CNCCn3cccn3)cs2)cc1	0
c1cnnc(NCC2CN(CCn3cncn3)CCO2)c1 (stereo not shown)	13.49

For reference, 6 entries once more:

compound,percent effect
N#Cc1ccc(CN2CCNC(=O)C2c2cccs2)cc1 (stereo not shown),19.35
c1ccc(Oc2ccc(CNCC3CNc4ccnn4C3)cn2)cc1 (stereo not shown),41.74
CCCN1CCN(C(=O)c2cnn(-c3ccccc3F)c2)CC1,22.32
OC(CNCCn1cccn1)c1cccc(Br)c1 (stereo not shown),8.621
c1cnnc(NCC2CN(CCn3cncn3)CCO2)c1 (stereo not shown),13.49
CC(O)CN1CCN(C(=O)c2ccc(N3CCCC3)nn2)CC1 (stereo not shown),8.929

Data taken from ChEMBL document CHEMBL3988442, “University of Dundee, Small-Polar-MMV Screening Library” (2021).